The pKd is the Kd on a negative log10 scale, so that one unit is a factor of ten.

Chains of the proteins cited; added tags and fusions are not shown. A line that says so, or that is headed by a name, gives the form on record, which may keep a tag or linker.
hBRM-B AT-BRD basic patch mutant K1432D,K1433N,K1442A,del1382-1399 (human), one chain, as listed by the source K1432D K1433N K1442A: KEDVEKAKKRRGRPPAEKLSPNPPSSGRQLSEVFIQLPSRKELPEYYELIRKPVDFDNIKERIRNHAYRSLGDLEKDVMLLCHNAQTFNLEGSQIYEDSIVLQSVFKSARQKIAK

pKd: −log10 of the molar value. Construct, isoform or probe ends are uncertain for at least one entry.

In PMC5519978 one finds Kd data, which are given here for two sequences.

In the data set the test system is hBRM-B AT-BRD basic patch mutant K1432D,K1433N,K1442A,del1382-1399 (human). Put plainly: NMR titration. As to conditions: column assigned from text; FA and NMR: 50 mM K phosphate pH 7.0, 50 mM KCl, 0.5 mM EDTA, 1 mM DTT (NMR +10% D2O), 20 C (BRG1 NMR 25 C); recombinant protein; residues 1358-1490.

In the case of CGTAGACAGCT (double strand) [DNAII], the pKd is 4.00.
The same measure for CTCAATTGGT (double strand) [DNAI]: 4.00.
